Data source: PubChem BioAssay AID1224830 (NIAID, 2016)
Here is an unselected part of about 18,000 reagents. About 2,900 of them (16%) were called active. 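Calls are made per well; low scores hint the gene aids the LPS response, high scores that it dampens it.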 Repeated entries: four replicate wells of each siRNA pool.

Purpose: 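Genes whose knock-down alters the TNF-alpha reporter response to LPS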 (primary screen)
Cells: human THP-1 monocytic leukaemia cells, TNF dual-luciferase reporter clone, PMA-differentiated to macrophage-like cells
Reagents: siRNA pool against human genes, 50 nM
Time to read-out: LPS for 4 h, given about 3 days after siRNA transfection
Challenge: bacterial LPS (TLR4 ligand), 10 ng/ml
Read-out: 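TNF firefly reporter luminescence divided by renilla, normalised to the plate median, then turned into a robust z-score for each replicate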
Reading the numbers: TNF reporter robust z-score: higher = stronger TNF reporter response to LPS
Rule for the call: 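a well is active when its z-score exceeds 2.8 or falls below -1.5; control wells carry no call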

| gene | PubChem SID | TNF reporter robust z-score | outcome |
| --- | --- | --- | --- |
| WIPI1 (GeneID 55062) | SID315457376 | -0.36 | inactive |
| WIPI1 (GeneID 55062) | SID315457376 | -0.67 | inactive |
| WIPI1 (GeneID 55062) | SID315457376 | -1.17 | inactive |
| WIPI1 (GeneID 55062) | SID315457376 | -1.24 | inactive |
| PDX1 (GeneID 3651) | SID315449525 | -0.13 | inactive |
| PDX1 (GeneID 3651) | SID315449525 | 0 | inactive |
| PDX1 (GeneID 3651) | SID315449525 | 0.02 | inactive |
| PDX1 (GeneID 3651) | SID315449525 | 0.3 | inactive |
| IMPG2 (GeneID 50939) | SID315456383 | 1.49 | inactive |
| IMPG2 (GeneID 50939) | SID315456383 | 0.23 | inactive |
| IMPG2 (GeneID 50939) | SID315456383 | -0.04 | inactive |
| IMPG2 (GeneID 50939) | SID315456383 | 0.24 | inactive |
| PRRG2 (GeneID 5639) | SID315450855 | 0.33 | inactive |
| PRRG2 (GeneID 5639) | SID315450855 | 0.37 | inactive |
| PRRG2 (GeneID 5639) | SID315450855 | 1.75 | inactive |
| PRRG2 (GeneID 5639) | SID315450855 | 1.34 | inactive |
| FZD2 (GeneID 2535) | SID315448785 | 0.12 | inactive |
| FZD2 (GeneID 2535) | SID315448785 | 0.75 | inactive |
| FZD2 (GeneID 2535) | SID315448785 | 0.43 | inactive |
| FZD2 (GeneID 2535) | SID315448785 | 0.17 | inactive |
| PSMA4 (GeneID 5685) | SID315450886 | -1.39 | inactive |
| PSMA4 (GeneID 5685) | SID315450886 | -1.34 | inactive |
| PSMA4 (GeneID 5685) | SID315450886 | -1.59 | active |
| PSMA4 (GeneID 5685) | SID315450886 | -1.81 | active |
| TSSK1B (GeneID 83942) | SID315460140 | -0.31 | inactive |
| TSSK1B (GeneID 83942) | SID315460140 | -0.34 | inactive |
| TSSK1B (GeneID 83942) | SID315460140 | -0.38 | inactive |
| TSSK1B (GeneID 83942) | SID315460140 | -0.13 | inactive |
| CPSF4 (GeneID 10898) | SID315454436 | 0.81 | inactive |
| CPSF4 (GeneID 10898) | SID315454436 | 0.52 | inactive |
| CPSF4 (GeneID 10898) | SID315454436 | -0.1 | inactive |
| CPSF4 (GeneID 10898) | SID315454436 | 0.95 | inactive |
| HMGA2 (GeneID 8091) | SID315452398 | 0.31 | inactive |
| HMGA2 (GeneID 8091) | SID315452398 | 1.46 | inactive |
| HMGA2 (GeneID 8091) | SID315452398 | -0.33 | inactive |
| HMGA2 (GeneID 8091) | SID315452398 | 0.92 | inactive |
| GPR39 (GeneID 2863) | SID315449012 | -0.92 | inactive |
| GPR39 (GeneID 2863) | SID315449012 | -0.3 | inactive |
| GPR39 (GeneID 2863) | SID315449012 | -0.34 | inactive |
| GPR39 (GeneID 2863) | SID315449012 | 0.14 | inactive |
| ATF5 (GeneID 22809) | SID315454791 | 0.09 | inactive |
| ATF5 (GeneID 22809) | SID315454791 | 0.47 | inactive |
| ATF5 (GeneID 22809) | SID315454791 | 0.54 | inactive |
| ATF5 (GeneID 22809) | SID315454791 | 0.8 | inactive |
| ZNF155 (GeneID 7711) | SID315452259 | 1.37 | inactive |
| ZNF155 (GeneID 7711) | SID315452259 | 2.36 | inactive |
| ZNF155 (GeneID 7711) | SID315452259 | 2.59 | inactive |
| ZNF155 (GeneID 7711) | SID315452259 | 2.63 | inactive |
| RAG1 (GeneID 5896) | SID315451037 | 0.11 | inactive |
| RAG1 (GeneID 5896) | SID315451037 | 0.05 | inactive |
| RAG1 (GeneID 5896) | SID315451037 | -1.52 | active |
| RAG1 (GeneID 5896) | SID315451037 | -0.33 | inactive |
| SRPX (GeneID 8406) | SID315452541 | -1.22 | inactive |
| SRPX (GeneID 8406) | SID315452541 | -0.66 | inactive |
| SRPX (GeneID 8406) | SID315452541 | -0.87 | inactive |
| SRPX (GeneID 8406) | SID315452541 | 0.09 | inactive |
| FNBP4 (GeneID 23360) | SID315455184 | -1.5 | inactive |
| FNBP4 (GeneID 23360) | SID315455184 | -1.3 | inactive |
| FNBP4 (GeneID 23360) | SID315455184 | -1.21 | inactive |
| FNBP4 (GeneID 23360) | SID315455184 | -1.48 | inactive |
| MARCHF1 (GeneID 55016) | SID315457348 | 0.62 | inactive |
| MARCHF1 (GeneID 55016) | SID315457348 | -0.51 | inactive |
| MARCHF1 (GeneID 55016) | SID315457348 | 1.47 | inactive |
| MARCHF1 (GeneID 55016) | SID315457348 | 2.21 | inactive |
| CNDP2 (GeneID 55748) | SID315457822 | -0.07 | inactive |
| CNDP2 (GeneID 55748) | SID315457822 | 2.21 | inactive |
| CNDP2 (GeneID 55748) | SID315457822 | 1.07 | inactive |
| CNDP2 (GeneID 55748) | SID315457822 | 0.44 | inactive |
| ATP8A1 (GeneID 10396) | SID315454054 | -0.32 | inactive |
| ATP8A1 (GeneID 10396) | SID315454054 | 0.04 | inactive |
| ATP8A1 (GeneID 10396) | SID315454054 | -0.19 | inactive |
| ATP8A1 (GeneID 10396) | SID315454054 | 0.38 | inactive |
| UNC5C (GeneID 8633) | SID315452701 | -1.26 | inactive |
| UNC5C (GeneID 8633) | SID315452701 | -1.02 | inactive |
| UNC5C (GeneID 8633) | SID315452701 | -1.16 | inactive |
| UNC5C (GeneID 8633) | SID315452701 | -0.8 | inactive |
| FGD6 (GeneID 55785) | SID315457855 | 0.22 | inactive |
| FGD6 (GeneID 55785) | SID315457855 | -0.43 | inactive |
| FGD6 (GeneID 55785) | SID315457855 | 0.62 | inactive |
| FGD6 (GeneID 55785) | SID315457855 | 1.31 | inactive |
| HAPSTR1 (GeneID 29035) | SID315456111 | 0.23 | inactive |
| HAPSTR1 (GeneID 29035) | SID315456111 | 2.81 | active |
| HAPSTR1 (GeneID 29035) | SID315456111 | 0.27 | inactive |
| HAPSTR1 (GeneID 29035) | SID315456111 | 3.3 | active |

Continued (17 carried over from the part before).
| gene | PubChem SID | TNF reporter robust z-score | outcome |
| --- | --- | --- | --- |
| CNDP2 (GeneID 55748) | SID315457822 | 0.44 | inactive |
| ATP8A1 (GeneID 10396) | SID315454054 | -0.32 | inactive |
| ATP8A1 (GeneID 10396) | SID315454054 | 0.04 | inactive |
| ATP8A1 (GeneID 10396) | SID315454054 | -0.19 | inactive |
| ATP8A1 (GeneID 10396) | SID315454054 | 0.38 | inactive |
| UNC5C (GeneID 8633) | SID315452701 | -1.26 | inactive |
| UNC5C (GeneID 8633) | SID315452701 | -1.02 | inactive |
| UNC5C (GeneID 8633) | SID315452701 | -1.16 | inactive |
| UNC5C (GeneID 8633) | SID315452701 | -0.8 | inactive |
| FGD6 (GeneID 55785) | SID315457855 | 0.22 | inactive |
| FGD6 (GeneID 55785) | SID315457855 | -0.43 | inactive |
| FGD6 (GeneID 55785) | SID315457855 | 0.62 | inactive |
| FGD6 (GeneID 55785) | SID315457855 | 1.31 | inactive |
| HAPSTR1 (GeneID 29035) | SID315456111 | 0.23 | inactive |
| HAPSTR1 (GeneID 29035) | SID315456111 | 2.81 | active |
| HAPSTR1 (GeneID 29035) | SID315456111 | 0.27 | inactive |
| HAPSTR1 (GeneID 29035) | SID315456111 | 3.3 | active |
| MICOS13 (GeneID 125988) | SID315461673 | -1.69 | active |
| MICOS13 (GeneID 125988) | SID315461673 | -1.87 | active |
| MICOS13 (GeneID 125988) | SID315461673 | -2.12 | active |
| FCRLB (GeneID 127943) | SID315461776 | 0.78 | inactive |
| FCRLB (GeneID 127943) | SID315461776 | 1.08 | inactive |
| FCRLB (GeneID 127943) | SID315461776 | -0.01 | inactive |
| FCRLB (GeneID 127943) | SID315461776 | 1.55 | inactive |
| PINX1 (GeneID 54984) | SID315457322 | -0.33 | inactive |
| PINX1 (GeneID 54984) | SID315457322 | -0.64 | inactive |
| PINX1 (GeneID 54984) | SID315457322 | -0.47 | inactive |
| OR52E4 (GeneID 390081) | SID315464606 | -0.32 | inactive |
| OR52E4 (GeneID 390081) | SID315464606 | -0.08 | inactive |
| OR52E4 (GeneID 390081) | SID315464606 | -0.18 | inactive |
| OR52E4 (GeneID 390081) | SID315464606 | -0.78 | inactive |
| ITPKC (GeneID 80271) | SID315459730 | -1.14 | inactive |
| ITPKC (GeneID 80271) | SID315459730 | -0.05 | inactive |
| ITPKC (GeneID 80271) | SID315459730 | 0.05 | inactive |
| ITPKC (GeneID 80271) | SID315459730 | 0.27 | inactive |
| MRPS30 (GeneID 10884) | SID315454425 | 0.31 | inactive |
| MRPS30 (GeneID 10884) | SID315454425 | -0.39 | inactive |
| MRPS30 (GeneID 10884) | SID315454425 | 0.98 | inactive |
| MRPS30 (GeneID 10884) | SID315454425 | 1.73 | inactive |
| PDPR (GeneID 55066) | SID315457380 | -0.31 | inactive |
| PDPR (GeneID 55066) | SID315457380 | 0.51 | inactive |
| PDPR (GeneID 55066) | SID315457380 | 1.57 | inactive |
| PDPR (GeneID 55066) | SID315457380 | 0.38 | inactive |
| HAX1 (GeneID 10456) | SID315454102 | -0.58 | inactive |
| HAX1 (GeneID 10456) | SID315454102 | -0.4 | inactive |
| HAX1 (GeneID 10456) | SID315454102 | -0.13 | inactive |
| HAX1 (GeneID 10456) | SID315454102 | 0.27 | inactive |
| DEFB103B (GeneID 55894) | SID315457935 | 2.28 | inactive |
| DEFB103B (GeneID 55894) | SID315457935 | 2.49 | inactive |
| DEFB103B (GeneID 55894) | SID315457935 | -0.38 | inactive |
| DEFB103B (GeneID 55894) | SID315457935 | 0.57 | inactive |
| GIMAP4 (GeneID 55303) | SID315457580 | -0.28 | inactive |
| GIMAP4 (GeneID 55303) | SID315457580 | -0.53 | inactive |
| GIMAP4 (GeneID 55303) | SID315457580 | -1.03 | inactive |
| GIMAP4 (GeneID 55303) | SID315457580 | 0.62 | inactive |
| MAPKAPK2 (GeneID 9261) | SID315453161 | 0.24 | inactive |
| MAPKAPK2 (GeneID 9261) | SID315453161 | 1.3 | inactive |
| MAPKAPK2 (GeneID 9261) | SID315453161 | -0.33 | inactive |
| MAPKAPK2 (GeneID 9261) | SID315453161 | -0.62 | inactive |
| CCDC90B (GeneID 60492) | SID315458714 | 0.03 | inactive |
| CCDC90B (GeneID 60492) | SID315458714 | -0.4 | inactive |
| CCDC90B (GeneID 60492) | SID315458714 | -0.08 | inactive |
| CCDC90B (GeneID 60492) | SID315458714 | 0.1 | inactive |
| MATCAP2 (GeneID 23366) | SID315455189 | -0.94 | inactive |
| MATCAP2 (GeneID 23366) | SID315455189 | -1.34 | inactive |
| MATCAP2 (GeneID 23366) | SID315455189 | -1.62 | active |
| MATCAP2 (GeneID 23366) | SID315455189 | -1.06 | inactive |
| PKD2L1 (GeneID 9033) | SID315452988 | -0.82 | inactive |
| PKD2L1 (GeneID 9033) | SID315452988 | -0.55 | inactive |
| PKD2L1 (GeneID 9033) | SID315452988 | -0.14 | inactive |
| PKD2L1 (GeneID 9033) | SID315452988 | 1.46 | inactive |
| RGS6 (GeneID 9628) | SID315453433 | -0.43 | inactive |
| RGS6 (GeneID 9628) | SID315453433 | -0.06 | inactive |
| RGS6 (GeneID 9628) | SID315453433 | -0.1 | inactive |
| RGS6 (GeneID 9628) | SID315453433 | 0.69 | inactive |
